PubChem BioAssay AID1259254 – NCATS, 2017
Aim: 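Gene knock-downs that lead to re-replication, shown by excess G2 DNA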 (primary screen). Cell system: human HCT116 colorectal cancer cells. Knock-down reagent: single siRNA against human genes. Time to read-out: 3 days. Measured: 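Imaged Hoechst DNA stain sorts each cell into a cycle phase by DNA amount; per plate, G2 fraction set to 0% for non-targeting and 100% for GMNN siRNA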. Scale: G2 robust z-score and G2 cells, % of GMNN control: higher = more G2 cells, more excess DNA replication. Rule for the call: 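Active siRNAs have a G2 robust z of 5 or more median absolute deviations over the median, which in these data means about 38% or higher of GMNN control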.
The deposit covers about 59,000 reagents; below is a part drawn at random. Over the whole deposit, about 1,550 (2.6%) were called active. 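G2 share is only a proxy for re-replication; each gene was hit by three separate siRNAs, and active genes were retested.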 A number with no mark means an inactive call. The numbers tell different reagents against one gene apart. Not all columns of the deposit are shown. No sequences are given here. Not given: the amount of reagent.

GKN2 (GeneID 200504) #1
- G2 robust z-score: -0.8
- G2 cells, % of GMNN control: -2.66

GKN2 (GeneID 200504) #2
- G2 robust z-score: 2.13
- G2 cells, % of GMNN control: 18

GKN2 (GeneID 200504) #3
- G2 robust z-score: -0.409
- G2 cells, % of GMNN control: 0.0929

FAM222B (GeneID 55731) #1
- G2 robust z-score: 0.0289
- G2 cells, % of GMNN control: 3.17

FAM222B (GeneID 55731) #2
- G2 robust z-score: 1.22
- G2 cells, % of GMNN control: 11.5

FAM222B (GeneID 55731) #3
- G2 robust z-score: -0.836
- G2 cells, % of GMNN control: -2.91

Continued (2 carried over from the part before).
FAM222B (GeneID 55731) #2
- G2 robust z-score: 1.22
- G2 cells, % of GMNN control: 11.5

FAM222B (GeneID 55731) #3
- G2 robust z-score: -0.836
- G2 cells, % of GMNN control: -2.91

CHST13 (GeneID 166012) #1
- G2 robust z-score: -0.198
- G2 cells, % of GMNN control: 1.57

CHST13 (GeneID 166012) #2
- G2 robust z-score: -0.0443
- G2 cells, % of GMNN control: 2.66

CHST13 (GeneID 166012) #3
- G2 robust z-score: -0.0746
- G2 cells, % of GMNN control: 2.44

FBN1 (GeneID 2200) #1
- G2 robust z-score: -0.575
- G2 cells, % of GMNN control: -1.08

FBN1 (GeneID 2200) #2
- G2 robust z-score: 0.383
- G2 cells, % of GMNN control: 5.66

FBN1 (GeneID 2200) #3
- G2 robust z-score: 6.66 (active)
- G2 cells, % of GMNN control: 49.8
